Changes are numbered by the printed parent chain. Numbers in names are those of the source. Results are given in words; binding and its absence hold for the method and conditions named. Binding seen in cells or lysates may run through a third protein. A result given as binding can be weak or reduced; the word gives no strength. For some of these results: Tags and fused reporters may be left off the sequences shown.
B1: EGFP-tagged Ngb Δ123–151 (domain or fragment, UniProt Q9NPG2 1-122)
chain: MERPEPELIRQSWRAVSRSPLEHGTVLFARLFALEPDLLPLFQYNCRQFSSPEDCLSSPEFLDHIRKVMLVIDAAVTNVEDLSSLEEYLASLGRKHRAVGVKLSSFSTVGESLLYMLEKCLG
B2: EGFP-tagged Ngb H64L (pEGFP-N1-Ngb H64L) (protein, UniProt Q9NPG2 1-151)
chain: MERPEPELIRQSWRAVSRSPLEHGTVLFARLFALEPDLLPLFQYNCRQFSSPEDCLSSPEFLDLIRKVMLVIDAAVTNVEDLSSLEEYLASLGRKHRAVGVKLSSFSTVGESLLYMLEKCLGPAFTPATRAAWSQLYGAVVQAMSRGWDGE
B3: EGFP-tagged Ngb wild type (pEGFP-C1-Ngb WT) (protein, UniProt Q9NPG2 1-151)
chain: B2 chain with L64H
B4: EGFP-tagged Ngb E118Q (pEGFP-N1-Ngb E118Q) (protein, UniProt Q9NPG2 1-151)
chain: B2 chain with L64H, E118Q
B5: EGFP-tagged Ngb wild type (pEGFP-N1-Ngb WT) (protein, UniProt Q9NPG2 1-151)
chain: B2 chain with L64H
B6: EGFP-tagged Ngb E53Q (pEGFP-N1-Ngb E53Q) (protein, UniProt Q9NPG2 1-151)
chain: B2 chain with E53Q, L64H
B7: EGFP-tagged Ngb Δ128–151 (domain or fragment, UniProt Q9NPG2 1-127)
chain: MERPEPELIRQSWRAVSRSPLEHGTVLFARLFALEPDLLPLFQYNCRQFSSPEDCLSSPEFLDHIRKVMLVIDAAVTNVEDLSSLEEYLASLGRKHRAVGVKLSSFSTVGESLLYMLEKCLGPAFTP
B8: EGFP-tagged Ngb Δ1–6 (domain or fragment, UniProt Q9NPG2 7-151)
chain: ELIRQSWRAVSRSPLEHGTVLFARLFALEPDLLPLFQYNCRQFSSPEDCLSSPEFLDHIRKVMLVIDAAVTNVEDLSSLEEYLASLGRKHRAVGVKLSSFSTVGESLLYMLEKCLGPAFTPATRAAWSQLYGAVVQAMSRGWDGE
B9: NV-Ngb (protein, UniProt Q9NPG2 1-151)
chain: B2 chain with L64H
B10: CV-Ngb (protein, UniProt Q9NPG2 1-151)
chain: B2 chain with L64H

Biological target: GST-p38
Assay: pull-down; N2a cells co-transfected 1:1 with pDEST27-GST-p38 and pEGFP-Ngb WT, truncates or mutants; OGD-1 h/Re-24 h (mutants also under normoxia); total soluble proteins on glutathione sepharose beads overnight at 4 °C; blots with anti-GFP and anti-GST

Row | binding | Binder
1 | binds | B1
2 | binds | B2
3 | binds | B3
4 | binds | B4
5 | binds | B5
6 | binds | B6
7 | binds | B7
8 | binds | B8

Biological target: CV-p38
Assay: split reporter; BiFC in living N2a cells co-transfected 1:1 with NV (Venus 1–157) and CV (Venus 137–238) fusions; Venus signal photographed at 24 h of transfection; normoxia and OGD-1 h/Re-6 h (signal stronger after OGD/Re)

Row | binding | Binder
9 | binds | B9

Biological target: NV-p38
Assay: as above

Row | binding | Binder
10 | binds | B10
